From PubChem BioAssay AID652054 (National Center for Advancing Translational Sciences (NCATS), 2013)
Screen size: about 360,000 compounds; about 9,100 (2.5%) were called active. The shares of active, inactive and inconclusive entries below differ from those in the screen. Rule as the data show it: active = max response below about -50%; inconclusive = no clear call, values can overlap the other calls; inactive = above that.
% is scaled to controls: 0 for no effect and ±100 for the full control effect.

By UniProt entry, the sequences of proteins in these tests, tags left out.
UniProt P35462, whole entry, looked up: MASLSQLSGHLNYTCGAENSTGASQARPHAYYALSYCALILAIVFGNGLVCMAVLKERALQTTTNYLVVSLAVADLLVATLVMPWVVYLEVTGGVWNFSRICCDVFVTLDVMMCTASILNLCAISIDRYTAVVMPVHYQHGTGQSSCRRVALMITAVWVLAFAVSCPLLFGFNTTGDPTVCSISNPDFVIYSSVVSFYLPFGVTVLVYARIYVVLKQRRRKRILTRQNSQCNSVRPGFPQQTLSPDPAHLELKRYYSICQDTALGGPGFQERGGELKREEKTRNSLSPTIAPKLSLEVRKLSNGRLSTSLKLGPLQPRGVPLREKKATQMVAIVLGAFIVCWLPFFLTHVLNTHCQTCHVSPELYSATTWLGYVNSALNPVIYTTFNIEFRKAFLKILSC

What follows are compounds tested against D(3) dopamine receptor (Homo sapiens) (UniProt P35462) (assay: qHTS of D3 Dopamine Receptor Antagonist: qHTS). Settings: D3R cells, DiscoveRx beta-arrestin luminescence, antagonist mode; hits give low values.
In short: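 Cells expressing the human receptor were seeded at 1500 cells/well, incubated overnight at 37 degrees C in 5% CO2, then exposed to library compounds with dopamine controls for 90 minutes at 37 degrees C before luminescent detection.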
`CCCN(CCO)Cc1ccc2ccccc2c1` was tested, and the max response, negative = inhibition was inconclusive: -40.9%.
In the case of `O=C(NC(=S)Nc1cccc(NC(=O)c2ccccc2)c1)c1cccc([N+](=O)[O-])c1`, the max response, negative = inhibition is reported as inconclusive: -40.8%.
For `O=C(c1cc2c(c(-c3cccc(-c4ccncc4)c3)n1)[C@@H](CCO)N(C(=O)c1ccc3c(c1)OCO3)C2)N1CCOCC1`, the max response, negative = inhibition was inconclusive: -42.3%.
For `COc1ccc2cc(C)c3nnc(SCC(=O)Nc4nc(-c5ccc(F)cc5)cs4)n3c2c1`, the max response, negative = inhibition was inactive: -6.14%.
`Cc1ccc([N+](=O)[O-])cc1N(CC(=O)Nc1ccc(S(=O)(=O)Nc2cccc(C(F)(F)F)c2)cc1)S(C)(=O)=O` was tested, and the max response, negative = inhibition was inconclusive: -42.6%.
For `COc1ccc(C(=O)CCC(=O)Nc2cccc(Cl)c2)cc1`, the max response, negative = inhibition was inconclusive: -35.1%.
For `CCOC(=O)Nc1ccc(C(=O)Oc2ccccc2)c(O)c1`, the max response, negative = inhibition was inconclusive: -37.6%.
For `CCCCNC(=S)N=Nc1c(O)n(Cc2ccccc2)c2ccccc12`, the max response, negative = inhibition was inconclusive: -45.5%.
For `CCCn1cc(SCC(=O)Nc2cc(C)on2)c2ccccc21`, the max response, negative = inhibition was inactive: -19.8%.
In the case of `O=C(O)C1CCN(C(=O)COc2ccc(Br)cc2)CC1`, the max response, negative = inhibition is reported as inconclusive: -36.3%.
With `O=C(CNC(=O)c1[nH]cnc1C(=O)N[C@@H](Cc1ccccc1)C(=O)OCc1ccccc1)OCc1ccccc1` the max response, negative = inhibition was inconclusive: -41.9%.
In the case of `NS(=O)(=O)c1ccc(N2N=C(c3ccc(Br)cc3)CC2c2ccc(F)cc2)cc1` (stereo not drawn), the max response, negative = inhibition is reported as inactive: 55.6%.
For `COc1cccc(CN(c2ccc3c(c2)CCC3)S(=O)(=O)c2ccc(-n3cnnn3)c(OC)c2)c1`, the max response, negative = inhibition was inconclusive: -30.9%.
In the case of `Cc1ccc(C(=O)N(Cc2nnc(-c3ccccc3Cl)o2)C2CC2)o1`, the max response, negative = inhibition is reported as inactive: 0%.
With `CC(C)=CCCC(C)c1cc(C(=O)NCCc2ccc(O)cc2)c(N)s1` (stereo not drawn) the max response, negative = inhibition was inactive: -17.7%.
With `COc1ccc(/C=C/CN2CCCC(CCC(=O)NCc3ccc(F)c(F)c3)C2)cc1` (stereo not drawn) the max response, negative = inhibition was active: -55.4%.
In the case of `CCOc1ccccc1CN1CCN(S(C)(=O)=O)CC1`, the max response, negative = inhibition is reported as inconclusive: -33.5%.
`CN(C)Cc1cc(CCNC(=O)c2ccc(Cl)cc2)ccc1O` was tested, and the max response, negative = inhibition was inconclusive: -38.7%.
`CCc1nonc1NC(=O)c1oc2c(C)c(C)ccc2c1C` was tested, and the max response, negative = inhibition was active: -51.7%.
In the case of `CC(C)c1ccc(Nc2nnc(SCC(=O)Nc3ncc(S(=O)(=O)c4ccc([N+](=O)[O-])cc4)s3)s2)cc1`, the max response, negative = inhibition is reported as inconclusive: -38.4%.
With `N#C/C(=C/c1ccc(N2CCCCCC2)o1)c1cccc(F)c1` the max response, negative = inhibition was active: -60.7%.
`O=C(NNC(=O)c1sc2cccc(Cl)c2c1Cl)Nc1ccccc1` was tested, and the max response, negative = inhibition was inactive: 0%.
For `O=P(O)(O)c1cc(-c2ccccc2)oc1-c1ccccc1`, the max response, negative = inhibition was inactive: 8.44%.
